Assays:
Assay in all cases: MTT cytotoxicity assay (Example 30)
Assay type in all cases: cell-based
HCC-1.1 (3sp) = conditions: Homo sapiens, 72 h, three days after drug addition, read-out: Inhibitory concentration IC50, 3sp
Procedure: (§1) Cytotoxicity of the compounds is the major property determining their anticancer effect in vivo. One of the parameters used, as the basis for cytotoxicity assays, is the metabolic activity of viable cells.
(§2) We have been using the following cell lines: HUH-7 and PLC/PRF/5 cell lines were maintained in DMEM supplemented with 10% fetal bovine serum, penicillin (100 U/ml) and streptomycin (100 μg/ml). […] HepG2 cell line was maintained in EMEM supplemented with 10% fetal bovine serum, sodium pyruvate (0.11 g/1), penicillin (100 U/ml) and streptomycin (100 μg/ml). All cell lines were cultivated at 37° C. in 5% CO2. For cytotoxicity assays, 3000 cells (10000 cells in case of HepG2 cell line) were seeded into each well of 96 well plate and the next day tested compounds were added at various concentrations in triplicates. Three days after drug addition MTT stock solution (5 mg/ml) was added into each well and incubated for 4 h. After this incubation period, produced formazan was dissolved by DMSO and final absorbance was measured at 570 nm with Synergy H4 Hybrid Multi-Mode Microplate Reader.

HCC-1.2 (3p) = conditions: Homo sapiens, HCC-1.2, 72 h, three days after drug addition, read-out: Inhibitory concentration IC50, 3p
Procedure: as §1, §2

HUH-7 = conditions: Homo sapiens, Huh-7, 72 h, three days after drug addition, read-out: Inhibitory concentration IC50, HUH-7
Procedure: as §1, §2

Hep3B = conditions: Homo sapiens, 72 h, three days after drug addition, read-out: Inhibitory concentration IC50, Hep3B
Procedure: as §1, §2

PLC/PRF/5 = conditions: Homo sapiens, PLC-PRF-5, 72 h, three days after drug addition, read-out: Inhibitory concentration IC50, PLC/PRF/5
Procedure: as §1, §2

Measured: IC50

CC[C@H](CO)Nc1nc(NCc2ccccc2)c2ncn(C(C)C)c2n1 [roscovitine, reference compound]
> 10 µM: all assays above
